{
  "source": "patent US6897287B1",
  "about": "“Ro/SSA peptide reagents for diagnosis of autoantibodies” (Oklahoma Medical Research Foundation, priority 1990, dated 2005)",
  "note": "Some results were stated once for a whole list of compounds, not compound by compound.",
  "data": [
    {"tested_on": "antibody of patient serum", "test": "Solid phase assay of nRNP (70 kD, A, C) octapeptides with patient sera", "format": "binding, human", "details": "nRNP A peptide octapeptides; threshold two standard deviations above the mean", "description": "(§1) The sequence of the 70 kD nuclear ribonucleoprotein (nRNP) is reported by R. A. Spritz, et al., in Nucleic Acids Res. 24: 10373-10391 (1987), the teachings of which are incorporated herein. The data analysis is done the same as for the Ro/SSA and La/SSB antigens. Each sequence identified represents the binding of antibody to octapetides that exceed arbitrary criteria in the solid phase assay. The identified antigenic regions are more than two standard deviations above the mean of normal sera and are bound by more than half of the patients. For the binding to the 70 kD peptide, the threshold in the assay is A410 of 0.380. The numbers in parentheses are the sequence positions of the first amino acid in the first octapeptide that exceeds the threshold. Each identified sequence is composed of one or more octapeptides. The number of octapeptides in each sequence is the length of the sequence […]. The underlined part of the sequence is the octapeptide that is bound most by the patient serum. In some cases, another octapeptide is essentially equivalent but not underlined.", "values": [
      {"sequence": "NLNEKIKKD", "binding, normalized A410 (threshold exceeded)": "> 0.400"},
      {"sequence": "IKKDELKKSL", "binding, normalized A410 (threshold exceeded)": "> 0.400"},
      {"sequence": "ERDRKREKRKPKS", "binding, normalized A410 (threshold exceeded)": "> 0.400"},
      {"sequence": "IIAKMKGTF", "binding, normalized A410 (threshold exceeded)": "> 0.400"},
      {"sequence": "ALQGFKIT", "binding, normalized A410 (threshold exceeded)": "> 0.400"},
      {"sequence": "AMKISFAKK", "binding, normalized A410 (threshold exceeded)": "> 0.400"},
      {"sequence": "OETPATKK", "binding, normalized A410 (threshold exceeded)": "> 0.400"},
      {"sequence": "LVSRSLKMRQAF", "binding, normalized A410 (threshold exceeded)": "> 0.400"},
      {"sequence": "QGFPFYDKPMRI", "binding, normalized A410 (threshold exceeded)": "> 0.400"}
    ]},
    {"tested_on": "antibody of patient serum", "test": "Solid phase assay of nRNP (70 kD, A, C) octapeptides with patient sera", "format": "binding, human", "details": "nRNP C peptide octapeptides", "description": "as §1", "values": [
      {"sequence": "GPPRPGMMPA", "binding, A410 (threshold exceeded)": "> 0.440"},
      {"sequence": "KIPPTPFS", "binding, A410 (threshold exceeded)": "> 0.440"},
      {"sequence": "SLPGPPRP", "binding, A410 (threshold exceeded)": "> 0.440"},
      {"sequence": "SVRKTHCSGRKHKENVKD", "binding, A410 (threshold exceeded)": "> 0.440"},
      {"sequence": "PPPPGMMP", "binding, A410 (threshold exceeded)": "> 0.440"},
      {"sequence": "GPAPGMRPP", "binding, A410 (threshold exceeded)": "> 0.440"},
      {"sequence": "KDYYQKWM", "binding, A410 (threshold exceeded)": "> 0.440"},
      {"sequence": "PPPPSLPG", "binding, A410 (threshold exceeded)": "> 0.440"},
      {"sequence": "PPMMRPPA", "binding, A410 (threshold exceeded)": "> 0.440"},
      {"sequence": "AFQQGKIPP", "binding, A410 (threshold exceeded)": "> 0.440"},
      {"sequence": "PGMTRPDR", "binding, A410 (threshold exceeded)": "> 0.440"}
    ]}
  ]
}
